Results on one sequence are retold here after publication PMC5996148.

Holding throughout (assay): protein microarray (ProtoArray v5.0), streptavidin-Alexa Fluor 647
Holding throughout (details): 3'-biotin; 20 mM Tris (pH 7.5), 5 mM MgCl2, 100 mM KCl, 0.1% Tween-20, A/T-rich and random oligonucleotide blockers; temperature not stated; high values mean tight binding

Test [1] has as its system Calcium-activated potassium channel subunit beta-3 (human).
In test [2] the test system is Calcium-binding protein 39-like (human).
For test [3], the system named is Calcium-transporting ATPase type 2C member 1 (human).
Test [4] has as its system Calcium/calmodulin-dependent protein kinase type 1 (human).
The test system of another test is Calpastatin (human).
A further test concerns Calretinin (human).
Test [5] deals with Carbonic anhydrase 3 (human).
The subject of test [6] is Carboxypeptidase A1 (human).
The subject of test [7] is Carboxypeptidase A2 (human).
Test [8] relates to Caspase recruitment domain-containing protein 14 (human).

The other results are listed elsewhere or left out.

For the sequence “GGGAGGCTGAGGCAGG [G4-1 biotinylated (PQS2)]”, the binding signal was -0.288 z-score in test [1]; -0.355 z-score in test [2]; -0.324 z-score in [3]; -0.36 z-score in test [4]; -0.339 z-score in the test with Calpastatin (human); -0.337 z-score in the test on Calretinin (human). The binding signal in test [5] was -0.339 z-score; in test [6], -0.324 z-score; in test [7], -0.319 z-score; in test [8], -0.334 z-score.
